Measured values: the supplement of paper PMC10849652
The list shows a part of the results.

The chains behind the UniProt entries cited, without tags or fusion partners. Where a name states a change or a piece, a line headed by the entry shows the natural chain unless it says otherwise.
UniProt Q9NRG0: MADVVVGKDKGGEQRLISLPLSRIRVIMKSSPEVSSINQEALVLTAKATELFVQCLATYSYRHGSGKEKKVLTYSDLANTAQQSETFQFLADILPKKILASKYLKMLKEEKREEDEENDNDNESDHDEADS
UniProt Q8N5K1: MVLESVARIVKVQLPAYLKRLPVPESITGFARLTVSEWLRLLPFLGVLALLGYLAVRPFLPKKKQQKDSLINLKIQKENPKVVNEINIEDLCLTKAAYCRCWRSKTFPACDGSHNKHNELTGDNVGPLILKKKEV
UniProt Q9UQN3, whole entry, looked up: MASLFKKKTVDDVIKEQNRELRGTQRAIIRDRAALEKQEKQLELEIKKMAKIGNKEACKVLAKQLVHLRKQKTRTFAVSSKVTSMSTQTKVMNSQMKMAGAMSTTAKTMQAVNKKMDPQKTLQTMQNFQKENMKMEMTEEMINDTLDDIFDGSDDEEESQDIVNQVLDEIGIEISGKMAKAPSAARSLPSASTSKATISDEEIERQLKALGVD
UniProt Q7LBR1: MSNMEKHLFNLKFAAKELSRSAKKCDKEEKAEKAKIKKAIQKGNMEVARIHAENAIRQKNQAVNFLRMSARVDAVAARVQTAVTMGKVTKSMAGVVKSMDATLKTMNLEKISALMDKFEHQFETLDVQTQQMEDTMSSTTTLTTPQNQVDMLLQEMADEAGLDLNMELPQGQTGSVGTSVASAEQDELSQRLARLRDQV
UniProt Q8NFW8: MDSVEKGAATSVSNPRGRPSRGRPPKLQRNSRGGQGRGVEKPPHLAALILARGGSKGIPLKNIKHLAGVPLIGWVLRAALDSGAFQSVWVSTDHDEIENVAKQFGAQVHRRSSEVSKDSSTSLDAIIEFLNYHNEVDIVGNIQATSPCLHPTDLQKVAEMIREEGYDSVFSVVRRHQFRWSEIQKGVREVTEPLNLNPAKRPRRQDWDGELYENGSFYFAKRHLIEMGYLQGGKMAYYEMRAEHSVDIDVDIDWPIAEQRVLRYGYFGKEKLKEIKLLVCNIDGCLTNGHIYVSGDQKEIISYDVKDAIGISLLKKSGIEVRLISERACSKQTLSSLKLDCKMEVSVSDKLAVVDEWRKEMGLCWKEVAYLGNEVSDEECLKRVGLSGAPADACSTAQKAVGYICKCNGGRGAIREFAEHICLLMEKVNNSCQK
UniProt Q13112, whole entry, looked up: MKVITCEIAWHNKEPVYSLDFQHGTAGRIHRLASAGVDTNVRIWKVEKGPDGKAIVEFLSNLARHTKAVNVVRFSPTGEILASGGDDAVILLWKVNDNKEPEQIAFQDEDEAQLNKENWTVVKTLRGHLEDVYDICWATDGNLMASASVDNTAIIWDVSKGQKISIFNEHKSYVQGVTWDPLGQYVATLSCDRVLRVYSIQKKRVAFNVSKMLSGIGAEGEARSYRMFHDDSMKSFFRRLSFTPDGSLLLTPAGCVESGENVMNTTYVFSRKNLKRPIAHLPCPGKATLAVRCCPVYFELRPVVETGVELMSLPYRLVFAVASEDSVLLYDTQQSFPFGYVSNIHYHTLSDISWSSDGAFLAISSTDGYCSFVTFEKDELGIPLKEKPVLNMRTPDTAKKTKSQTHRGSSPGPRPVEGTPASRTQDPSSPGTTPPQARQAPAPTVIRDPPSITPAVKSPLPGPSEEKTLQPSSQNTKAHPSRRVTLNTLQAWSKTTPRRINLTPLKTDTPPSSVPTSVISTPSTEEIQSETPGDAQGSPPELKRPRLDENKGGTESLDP
UniProt Q9NZ45: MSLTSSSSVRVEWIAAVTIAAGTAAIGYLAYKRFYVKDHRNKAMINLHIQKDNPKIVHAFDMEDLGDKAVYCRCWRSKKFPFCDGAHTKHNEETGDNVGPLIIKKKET
UniProt Q6FI81: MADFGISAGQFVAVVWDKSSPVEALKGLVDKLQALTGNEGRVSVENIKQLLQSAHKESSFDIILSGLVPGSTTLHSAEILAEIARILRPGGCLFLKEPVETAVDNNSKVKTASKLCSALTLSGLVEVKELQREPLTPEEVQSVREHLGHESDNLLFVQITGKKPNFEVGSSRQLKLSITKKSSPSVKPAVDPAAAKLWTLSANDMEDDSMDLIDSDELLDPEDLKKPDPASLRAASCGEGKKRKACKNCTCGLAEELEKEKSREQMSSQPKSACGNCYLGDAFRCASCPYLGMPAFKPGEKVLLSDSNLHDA
UniProt Q8WUH1: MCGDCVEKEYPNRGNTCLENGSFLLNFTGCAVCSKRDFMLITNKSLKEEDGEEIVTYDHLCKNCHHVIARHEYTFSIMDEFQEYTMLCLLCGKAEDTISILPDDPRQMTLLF
UniProt Q9ULV3: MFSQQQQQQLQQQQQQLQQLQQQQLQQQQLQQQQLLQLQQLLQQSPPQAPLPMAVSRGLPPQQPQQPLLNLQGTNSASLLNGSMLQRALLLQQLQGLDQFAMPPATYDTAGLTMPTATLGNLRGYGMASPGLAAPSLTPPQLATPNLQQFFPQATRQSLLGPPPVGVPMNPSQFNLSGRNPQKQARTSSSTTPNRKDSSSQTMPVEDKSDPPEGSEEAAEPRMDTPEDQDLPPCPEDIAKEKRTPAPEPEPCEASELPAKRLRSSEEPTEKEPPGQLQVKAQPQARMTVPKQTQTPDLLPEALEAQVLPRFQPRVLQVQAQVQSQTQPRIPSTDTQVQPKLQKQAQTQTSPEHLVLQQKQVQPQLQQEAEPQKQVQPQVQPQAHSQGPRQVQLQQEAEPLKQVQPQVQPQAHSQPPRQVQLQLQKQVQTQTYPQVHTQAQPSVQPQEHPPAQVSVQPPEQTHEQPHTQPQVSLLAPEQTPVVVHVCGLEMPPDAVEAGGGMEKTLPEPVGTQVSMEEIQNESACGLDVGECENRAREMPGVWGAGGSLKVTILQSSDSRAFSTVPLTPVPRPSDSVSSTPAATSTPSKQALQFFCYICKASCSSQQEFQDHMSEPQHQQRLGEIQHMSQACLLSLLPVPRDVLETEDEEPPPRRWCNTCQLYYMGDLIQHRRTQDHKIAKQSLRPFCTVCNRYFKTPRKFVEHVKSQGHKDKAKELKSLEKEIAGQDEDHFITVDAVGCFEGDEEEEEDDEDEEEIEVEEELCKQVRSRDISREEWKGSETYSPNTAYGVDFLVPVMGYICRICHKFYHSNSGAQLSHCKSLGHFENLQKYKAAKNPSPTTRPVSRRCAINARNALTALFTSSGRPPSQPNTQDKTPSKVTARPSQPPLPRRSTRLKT
UniProt O15111: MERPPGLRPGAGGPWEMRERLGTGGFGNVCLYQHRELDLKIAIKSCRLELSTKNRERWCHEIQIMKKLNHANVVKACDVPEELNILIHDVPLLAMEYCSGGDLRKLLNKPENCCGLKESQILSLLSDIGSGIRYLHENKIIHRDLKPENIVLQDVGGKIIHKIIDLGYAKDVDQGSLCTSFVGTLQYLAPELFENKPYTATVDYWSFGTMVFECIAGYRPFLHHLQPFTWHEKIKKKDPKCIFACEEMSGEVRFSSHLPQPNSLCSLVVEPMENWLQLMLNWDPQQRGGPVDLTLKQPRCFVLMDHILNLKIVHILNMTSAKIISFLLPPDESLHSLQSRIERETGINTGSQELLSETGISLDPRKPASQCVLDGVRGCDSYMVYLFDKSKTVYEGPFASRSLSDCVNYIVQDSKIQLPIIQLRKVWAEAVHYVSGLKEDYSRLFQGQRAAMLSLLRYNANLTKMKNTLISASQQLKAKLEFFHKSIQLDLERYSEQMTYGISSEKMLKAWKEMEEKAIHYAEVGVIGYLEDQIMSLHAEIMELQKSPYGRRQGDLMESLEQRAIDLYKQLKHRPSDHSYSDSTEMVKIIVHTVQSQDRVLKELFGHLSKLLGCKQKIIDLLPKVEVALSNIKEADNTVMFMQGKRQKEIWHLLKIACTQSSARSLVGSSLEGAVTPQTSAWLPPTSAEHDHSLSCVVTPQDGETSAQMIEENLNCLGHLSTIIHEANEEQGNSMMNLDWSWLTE
UniProt Q9BWS9: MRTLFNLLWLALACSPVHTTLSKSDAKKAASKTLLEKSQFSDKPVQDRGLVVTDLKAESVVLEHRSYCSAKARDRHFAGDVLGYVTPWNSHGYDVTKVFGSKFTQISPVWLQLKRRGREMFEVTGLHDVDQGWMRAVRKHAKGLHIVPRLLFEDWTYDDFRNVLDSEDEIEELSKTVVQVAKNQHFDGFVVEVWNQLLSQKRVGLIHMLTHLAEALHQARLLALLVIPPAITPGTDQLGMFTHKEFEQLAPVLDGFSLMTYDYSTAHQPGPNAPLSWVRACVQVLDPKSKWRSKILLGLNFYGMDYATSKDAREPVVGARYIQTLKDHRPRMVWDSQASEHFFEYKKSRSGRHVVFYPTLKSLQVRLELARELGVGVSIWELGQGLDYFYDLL
UniProt Q8WWK9: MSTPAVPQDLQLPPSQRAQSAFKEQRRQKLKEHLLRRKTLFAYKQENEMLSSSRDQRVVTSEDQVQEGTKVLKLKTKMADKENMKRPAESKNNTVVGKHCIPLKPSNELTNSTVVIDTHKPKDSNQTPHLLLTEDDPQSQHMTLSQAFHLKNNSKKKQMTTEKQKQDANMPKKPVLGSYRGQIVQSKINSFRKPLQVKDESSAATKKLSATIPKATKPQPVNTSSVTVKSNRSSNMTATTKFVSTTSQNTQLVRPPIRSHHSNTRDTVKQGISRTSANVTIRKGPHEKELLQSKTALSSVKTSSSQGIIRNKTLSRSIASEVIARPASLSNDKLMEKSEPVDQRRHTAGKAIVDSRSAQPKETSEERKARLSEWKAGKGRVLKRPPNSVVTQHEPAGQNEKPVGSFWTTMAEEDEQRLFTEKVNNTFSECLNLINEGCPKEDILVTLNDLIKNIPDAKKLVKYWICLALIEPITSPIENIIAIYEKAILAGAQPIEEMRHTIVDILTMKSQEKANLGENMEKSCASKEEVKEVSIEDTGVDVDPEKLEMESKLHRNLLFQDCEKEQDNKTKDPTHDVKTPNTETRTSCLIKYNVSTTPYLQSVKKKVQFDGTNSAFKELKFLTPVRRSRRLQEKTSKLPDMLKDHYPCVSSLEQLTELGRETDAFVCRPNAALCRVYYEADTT
UniProt Q5T1J5: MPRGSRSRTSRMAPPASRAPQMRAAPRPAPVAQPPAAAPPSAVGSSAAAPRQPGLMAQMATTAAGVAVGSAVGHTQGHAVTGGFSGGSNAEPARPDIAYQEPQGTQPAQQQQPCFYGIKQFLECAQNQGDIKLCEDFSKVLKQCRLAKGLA
UniProt Q96JM3: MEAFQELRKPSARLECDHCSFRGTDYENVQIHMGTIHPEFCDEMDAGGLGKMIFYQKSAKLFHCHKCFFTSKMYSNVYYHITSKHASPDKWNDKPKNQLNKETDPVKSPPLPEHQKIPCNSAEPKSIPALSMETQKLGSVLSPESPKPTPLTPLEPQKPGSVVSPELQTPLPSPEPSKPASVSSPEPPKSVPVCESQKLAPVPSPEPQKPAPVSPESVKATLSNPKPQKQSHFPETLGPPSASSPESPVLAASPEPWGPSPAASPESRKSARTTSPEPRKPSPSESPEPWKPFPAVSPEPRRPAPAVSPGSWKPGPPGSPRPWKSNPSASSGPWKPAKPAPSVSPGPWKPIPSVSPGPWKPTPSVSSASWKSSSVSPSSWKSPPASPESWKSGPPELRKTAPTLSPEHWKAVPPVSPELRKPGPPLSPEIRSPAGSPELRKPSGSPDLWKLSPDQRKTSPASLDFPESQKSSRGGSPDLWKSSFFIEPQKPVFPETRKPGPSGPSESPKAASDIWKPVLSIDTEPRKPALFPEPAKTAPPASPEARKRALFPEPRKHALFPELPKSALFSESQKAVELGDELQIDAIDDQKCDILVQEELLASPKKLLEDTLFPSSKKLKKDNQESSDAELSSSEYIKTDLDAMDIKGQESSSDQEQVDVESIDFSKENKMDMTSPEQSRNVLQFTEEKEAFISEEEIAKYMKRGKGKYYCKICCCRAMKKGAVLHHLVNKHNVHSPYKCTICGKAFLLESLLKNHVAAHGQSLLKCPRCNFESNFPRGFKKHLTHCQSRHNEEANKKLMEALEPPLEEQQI

Assays:
Test in all cases: log2 fold change, soluble protein after heating vs DMSO (PISA); higher = thermal stabilisation; K562 lysate, 10 uM; active = over 0.2 and 3.5 SD of the protein, either way, in both replicates (recomputed)
erlotinib = compound: C#Cc1cccc(Nc2ncnc3cc(OCCOC)c(OCCOC)cc23)c1 [erlotinib]
Outline: (§1)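 K562 pellets were dounce-homogenised in PBS pH 7.4 containing 1 mM MgCl2, and the crude extract, at 1 mg/mL protein, was exposed to 10 μM compound for 30 min. Aliquots were heated for 3 min across 48°C-58°C, pooled, brought to 0.5% NP-40 at 4°C and spun at 21,000xg for 90 min, with the supernatant taken as soluble protein. TMTpro 16plex LC-MS/MS with equalised channel sums quantified that protein. Values are log-two fold changes in thermal stability relative to solvent controls, taken from duplicates.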

[1] = compound: C/C(=N\NC(=O)C1=CC(=CC=C1)S(=O)(=O)N2CCOCC2)/C3=C(C=CC(=C3)Cl)O
Outline: as §1

[2] = compound: C1=CC(=CC=C1C2=NC3=C(N2)C=C(C=C3)C(=O)N)OC4=CC=C(C=C4)Cl
Outline: as §1

[3] = compound: C1=CC2=C(C=CC(=C2)/C=C\3/C(=O)NC(=NCC4=CC=CS4)S3)N=C1
Outline: as §1

[4] = compound: C1=CC2=NC=CN=C2C=C1/C=C/3\C(=O)NC(=O)S3
Outline: as §1

[5] = compound: C1=CC=C(C=C1)C2=NC(=C(N2)C3=CC=NC=C3)C4=CC(=C(C=C4)Cl)O
Outline: as §1

[6] = compound: C1=CC=C2C(=C1)C3=NNC4=CC=CC(=C43)C2=O
Outline: as §1

[7] = compound: C1CCN(C1)C(=O)NC2=CC=CC(=C2)NC3=NC=C(C(=N3)NCCC4=CN=CN4)Br
Outline: as §1

[8] = compound: C1CN(CCC1(CC2=CC=C(C=C2)Cl)N)C3=NC=NC4=C3C=CN4
Outline: as §1

IRAK-1-4 Inhibitor I = compound: C1COCCN1CCN2C3=CC=CC=C3N=C2NC(=O)C4=CC(=CC=C4)[N+](=O)[O-] [IRAK-1-4 Inhibitor I]
Outline: as §1

ibrutinib = compound: C=CC(=O)N1CCC[C@@H](n2nc(-c3ccc(Oc4ccccc4)cc3)c3c(N)ncnc32)C1 [ibrutinib]
Outline: as §1

[9] = compound: CC(=O)c1cnc2ccc(-c3cc(Cl)c(O)c(Cl)c3)nc2c1N[C@H]1CC[C@H](CN(C)C)CC1
Outline: as §1

ralimetinib = compound: CC(C)(C)Cn1c(N)nc2ccc(-c3[nH]c(C(C)(C)C)nc3-c3ccc(F)cc3)nc21 [ralimetinib]
Outline: as §1

[10] = compound: CC(C)(O)CC(=O)NCCn1ccc2ncnc(Nc3ccc(Oc4cccc(C(F)(F)F)c4)c(Cl)c3)c21
Outline: as §1

[11] = compound: CC(C)C1=C2N=C(C=C(N2N=C1)NCC3=CC=CC=C3)NCCCCCCN
Outline: as §1

[12] = compound: CC1=C(C(CC(=O)N1)C2=CC=C(C=C2)C(F)(F)F)C(=O)NC3=C(C=C4C(=C3)C=NN4)F
Outline: as §1

[13] = compound: CC1=C(C2=C(C=C1)C(=O)C3=CC=CC=C3N2CCCN)C
Outline: as §1

[14] = compound: CC1=C(C=C(C=C1)NC(=O)C2=CC(=CC=C2)C(C)(C)C#N)NC3=CC4=C(C=C3)N=CN(C4=O)C
Outline: as §1

[15] = compound: CC1=C(C=C(C=C1)NC(=O)C2=CC(=CC=C2)N(C)C)NC(=O)C3=CC=C(C=C3)O
Outline: as §1

[16] = compound: CC1=CC=C(C=C1)SC2=C3C=C(SC3=CN=C2)C(=O)N
Outline: as §1

| Target | log2 fold change (erlotinib) | log2 fold change [1] | log2 fold change [2] | log2 fold change [3] | log2 fold change [4] | log2 fold change [5] | log2 fold change [6] | log2 fold change [7] | log2 fold change [8] | log2 fold change (IRAK-1-4 Inhibitor I) | log2 fold change (ibrutinib) | log2 fold change [9] | log2 fold change (ralimetinib) | log2 fold change [10] | log2 fold change [11] | log2 fold change [12] | log2 fold change [13] | log2 fold change [14] | log2 fold change [15] | log2 fold change [16] |
| --- | --- | --- | --- | --- | --- | --- | --- | --- | --- | --- | --- | --- | --- | --- | --- | --- | --- | --- | --- | --- |
| CHRAC1 (UniProt Q9NRG0) | inactive: 0.059 | inactive: -0.164 | inactive: -0.058 | inactive: 0.02 | inactive: 0.054 | inactive: 0.027 | inactive: 0.037 | inactive: -0.008 | inactive: 0.043 | inactive: 0.086 | inactive: -0.035 | inactive: 0.006 | inactive: -0.043 | inactive: -0.039 | inactive: 0.14 | inactive: 0.017 | inactive: -0.017 | inactive: -0.006 | inactive: -0.03 | inactive: 0.047 |
| CISD2 (UniProt Q8N5K1) | inactive: 0.005 | inactive: -0.062 | inactive: 0.004 | inactive: -0.009 | inactive: -0.015 | inactive: 0.011 | inactive: -0.018 | inactive: -0.005 | inactive: 0.045 | inactive: 0.047 | inactive: 0.05 | inactive: 0.012 | inactive: -0.026 | inactive: -0.02 | inactive: -0.001 | inactive: 0.009 | inactive: -0.03 | inactive: 0.014 | inactive: -0.023 | inactive: -0.011 |
| CHMP2B (UniProt Q9UQN3) | inactive: -0.039 | inactive: -0.034 | inactive: -0.01 | inactive: 0.013 | inactive: -0.009 | inactive: 0.047 | inactive: 0.04 | inactive: -0.008 | inactive: -0.03 | inactive: -0.023 | inactive: 0.026 | inactive: 0.02 | inactive: 0.006 | inactive: 0.031 | inactive: -0.02 | inactive: 0.019 | inactive: -0.02 | inactive: -0.023 | inactive: -0.003 | inactive: -0.029 |
| CHMP1B (UniProt Q7LBR1) | inactive: -0.071 | inactive: -0.037 | inactive: -0.009 | inactive: 0.026 | inactive: 0 | inactive: 0.033 | inactive: 0.024 | inactive: -0.006 | inactive: -0.003 | inactive: 0.004 | inactive: -0.035 | inactive: -0.023 | inactive: 0 | inactive: -0.025 | inactive: -0.032 | inactive: -0.048 | inactive: 0.006 | inactive: -0.003 | inactive: 0.005 | inactive: -0.028 |
| CMAS (UniProt Q8NFW8) | inactive: 0.018 | inactive: -0.047 | inactive: 0.002 | inactive: 0.029 | inactive: -0.007 | inactive: 0.002 | inactive: 0.015 | inactive: 0.007 | inactive: 0.023 | inactive: -0.03 | inactive: 0 | inactive: -0.017 | inactive: -0.005 | inactive: -0.008 | inactive: 0.025 | inactive: 0.007 | inactive: -0.009 | inactive: 0.002 | inactive: 0.011 | inactive: 0.039 |
| CHERP (UniProt Q8IWX8) | inactive: 0.02 | inactive: 0.017 | inactive: -0.036 | inactive: -0.012 | inactive: -0.032 | inactive: 0.013 | inactive: -0.005 | inactive: 0.007 | inactive: 0.018 | inactive: -0.009 | inactive: 0.037 | inactive: -0.002 | inactive: 0.038 | inactive: -0.029 | inactive: -0.031 | inactive: -0.026 | inactive: 0.002 | inactive: -0.03 | inactive: 0.02 | inactive: 0.014 |
| CHAF1B (UniProt Q13112) | inactive: -0.033 | inactive: -0.079 | inactive: 0.039 | inactive: -0.028 | inactive: -0.019 | inactive: -0.01 | inactive: -0.009 | inactive: -0.01 | inactive: 0.011 | inactive: 0.032 | inactive: -0.007 | inactive: 0.001 | inactive: -0.002 | inactive: 0.006 | inactive: 0.007 | inactive: 0.01 | inactive: -0.004 | inactive: 0.047 | inactive: 0 | inactive: -0.011 |
| CISD1 (UniProt Q9NZ45) | inactive: -0.001 | inactive: -0.081 | inactive: 0.035 | inactive: 0.004 | inactive: 0.005 | inactive: -0.026 | inactive: 0.026 | inactive: -0.009 | inactive: 0.012 | inactive: 0.017 | inactive: 0.036 | inactive: -0.015 | inactive: 0.03 | inactive: -0.033 | inactive: -0.037 | inactive: -0.023 | inactive: 0.025 | inactive: 0.058 | inactive: -0.031 | inactive: -0.024 |
| CIAPIN1 (UniProt Q6FI81) | inactive: 0.021 | inactive: 0.043 | inactive: 0.008 | inactive: -0.01 | inactive: 0.016 | inactive: 0.016 | inactive: 0.026 | inactive: -0.004 | inactive: -0.004 | inactive: 0.012 | inactive: 0.018 | inactive: 0.002 | inactive: -0.036 | inactive: -0.007 | inactive: 0.002 | inactive: -0.039 | inactive: 0.007 | inactive: 0.01 | inactive: -0.014 | inactive: -0.016 |
| CHURC1 isoform 2 (UniProt Q8WUH1) | inactive: 0.05 | inactive: -0.13 | inactive: -0.021 | inactive: -0.003 | inactive: 0.015 | inactive: 0.079 | inactive: 0.002 | inactive: -0.017 | inactive: 0.058 | inactive: -0.002 | inactive: 0.055 | inactive: 0.05 | inactive: 0.027 | inactive: -0.077 | inactive: 0.07 | inactive: -0.065 | inactive: 0.057 | inactive: 0.085 | inactive: -0.102 | inactive: 0.004 |
| CIZ1 (UniProt Q9ULV3) | inactive: -0.017 | inactive: -0.027 | inactive: 0.091 | inactive: -0.045 | inactive: -0.036 | inactive: -0.027 | inactive: -0.018 | inactive: -0.017 | inactive: 0.028 | inactive: 0.033 | inactive: 0.073 | inactive: 0.011 | inactive: -0.019 | inactive: -0.011 | inactive: -0.112 | inactive: -0.083 | inactive: -0.001 | inactive: -0.031 | inactive: -0.012 | inactive: -0.058 |
| CHUK (UniProt O15111) | inactive: -0.005 | inactive: 0.114 | inactive: -0.076 | inactive: 0.01 | inactive: -0.019 | inactive: 0.022 | inactive: 0.015 | inactive: -0.002 | inactive: -0.002 | inactive: -0.044 | inactive: 0.034 | inactive: 0.04 | inactive: 0.063 | inactive: 0.071 | inactive: 0.014 | inactive: -0.047 | inactive: -0.014 | inactive: -0.013 | inactive: 0.009 | inactive: -0.016 |
| CHID1 (UniProt Q9BWS9) | inactive: -0.011 | inactive: -0.015 | inactive: 0.033 | inactive: 0.01 | inactive: -0.004 | inactive: -0.017 | inactive: 0.006 | inactive: -0.002 | inactive: 0.015 | inactive: -0.004 | inactive: 0.026 | inactive: 0.009 | inactive: 0.002 | inactive: 0.011 | inactive: 0.002 | inactive: -0.02 | inactive: 0.027 | inactive: 0.026 | inactive: -0.013 | inactive: -0.001 |
| CKAP2 (UniProt Q8WWK9) | inactive: 0 | inactive: -0.158 | inactive: -0.062 | inactive: -0.148 | inactive: -0.015 | inactive: 0.006 | active: -0.611 | inactive: -0.007 | inactive: 0.046 | inactive: 0.014 | inactive: -0.065 | inactive: -0.057 | inactive: -0.017 | inactive: 0.016 | inactive: -0.053 | inactive: -0.012 | inactive: -0.004 | inactive: 0.003 | inactive: -0.027 | inactive: 0.03 |
| CHCHD2P9 (UniProt Q5T1J5) | inactive: 0.02 | inactive: -0.536 | inactive: 0.07 | inactive: -0.062 | inactive: 0.001 | inactive: 0.028 | inactive: -0.107 | inactive: -0.049 | inactive: 0.088 | inactive: 0.068 | inactive: 0.027 | inactive: -0.013 | inactive: -0.041 | inactive: 0.026 | inactive: 0.077 | inactive: 0.064 | inactive: -0.004 | inactive: -0.099 | inactive: -0.038 | inactive: 0.035 |
| CHAMP1 (UniProt Q96JM3) | inactive: -0.008 | inactive: -0.027 | inactive: 0.021 | inactive: 0.014 | inactive: -0.02 | inactive: 0.029 | inactive: -0.05 | inactive: -0.03 | inactive: 0.029 | inactive: -0.003 | inactive: 0.038 | inactive: -0.03 | inactive: -0.041 | inactive: -0.032 | inactive: -0.015 | inactive: -0.02 | inactive: 0.011 | inactive: 0.008 | inactive: -0.002 | inactive: 0.016 |

3 entries from above, bar-delimited.
Target | log2 fold change (erlotinib) | log2 fold change [1] | log2 fold change [2] | log2 fold change [3] | log2 fold change [4] | log2 fold change [5] | log2 fold change [6] | log2 fold change [7] | log2 fold change [8] | log2 fold change (IRAK-1-4 Inhibitor I) | log2 fold change (ibrutinib) | log2 fold change [9] | log2 fold change (ralimetinib) | log2 fold change [10] | log2 fold change [11] | log2 fold change [12] | log2 fold change [13] | log2 fold change [14] | log2 fold change [15] | log2 fold change [16]
CHRAC1 (UniProt Q9NRG0) | inactive: 0.059 | inactive: -0.164 | inactive: -0.058 | inactive: 0.02 | inactive: 0.054 | inactive: 0.027 | inactive: 0.037 | inactive: -0.008 | inactive: 0.043 | inactive: 0.086 | inactive: -0.035 | inactive: 0.006 | inactive: -0.043 | inactive: -0.039 | inactive: 0.14 | inactive: 0.017 | inactive: -0.017 | inactive: -0.006 | inactive: -0.03 | inactive: 0.047
CISD2 (UniProt Q8N5K1) | inactive: 0.005 | inactive: -0.062 | inactive: 0.004 | inactive: -0.009 | inactive: -0.015 | inactive: 0.011 | inactive: -0.018 | inactive: -0.005 | inactive: 0.045 | inactive: 0.047 | inactive: 0.05 | inactive: 0.012 | inactive: -0.026 | inactive: -0.02 | inactive: -0.001 | inactive: 0.009 | inactive: -0.03 | inactive: 0.014 | inactive: -0.023 | inactive: -0.011
CHMP2B (UniProt Q9UQN3) | inactive: -0.039 | inactive: -0.034 | inactive: -0.01 | inactive: 0.013 | inactive: -0.009 | inactive: 0.047 | inactive: 0.04 | inactive: -0.008 | inactive: -0.03 | inactive: -0.023 | inactive: 0.026 | inactive: 0.02 | inactive: 0.006 | inactive: 0.031 | inactive: -0.02 | inactive: 0.019 | inactive: -0.02 | inactive: -0.023 | inactive: -0.003 | inactive: -0.029
